Experimental data as given in PubChem BioAssay AID588590 (National Center for Advancing Translational Sciences (NCATS), 2011).
Hit rate of the full screen: of about 390,000 compounds, about 4,000 (1%) were called active. The shares of active, inactive and inconclusive entries below differ from those in the screen. Calls come from the whole dose curve; as a rule, active = well fitted inhibition curve with a large enough effect; inconclusive = small, poorly fitted or top-dose-only effect, or another doubt; inactive = no such curve, though single readings can be large or run the other way. Where the call is inconclusive, the potency comes from a doubtful curve fit.

The chains behind the UniProt entries cited, without tags or fusion partners. Where a name states a change or a piece, a line headed by the entry shows the natural chain unless it says otherwise.
UniProt Q9UNA4: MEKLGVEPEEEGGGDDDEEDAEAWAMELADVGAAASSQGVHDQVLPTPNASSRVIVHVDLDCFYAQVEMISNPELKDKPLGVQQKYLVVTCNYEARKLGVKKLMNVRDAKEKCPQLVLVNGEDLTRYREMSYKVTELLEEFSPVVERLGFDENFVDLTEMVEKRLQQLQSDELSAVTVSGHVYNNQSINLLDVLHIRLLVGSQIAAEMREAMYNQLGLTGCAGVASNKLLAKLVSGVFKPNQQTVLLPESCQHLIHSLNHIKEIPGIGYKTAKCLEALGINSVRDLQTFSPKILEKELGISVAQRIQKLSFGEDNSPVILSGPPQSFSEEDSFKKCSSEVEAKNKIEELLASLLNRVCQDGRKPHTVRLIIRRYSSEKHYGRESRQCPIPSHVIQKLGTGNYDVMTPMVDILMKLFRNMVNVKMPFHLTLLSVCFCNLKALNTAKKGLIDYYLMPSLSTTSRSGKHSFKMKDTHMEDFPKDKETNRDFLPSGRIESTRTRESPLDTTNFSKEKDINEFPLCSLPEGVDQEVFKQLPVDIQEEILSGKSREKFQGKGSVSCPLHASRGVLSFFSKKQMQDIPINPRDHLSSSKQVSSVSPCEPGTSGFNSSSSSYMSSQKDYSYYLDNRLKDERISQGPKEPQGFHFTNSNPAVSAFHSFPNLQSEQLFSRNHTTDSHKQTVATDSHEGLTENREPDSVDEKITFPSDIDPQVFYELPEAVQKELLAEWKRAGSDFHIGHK

Target: DNA polymerase iota (Homo sapiens) (UniProt Q9UNA4)
Assay: qHTS for Inhibitors of Polymerase Iota
Conditions: Pol iota fluorescent replication assay, 10 min; series mostly up to 115 µM; activity, negative = inhibition: at the top concentration
Method in brief: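 Fluorescent replication assay read twice, at 0 min and 10 min after adding 50 nM (final) substrate. Enzyme (10 nM) and compounds were first incubated 15 min at room temperature; enzyme-free buffer wells were negative controls.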
Potency is the fitted concentration of half-maximal effect.

Question: COCc1[nH]nc2c1C(C1C=CCCC1)C(C#N)=C(N)O2 (centres undefined) was tested. Which Potency did it give?
Answer: inconclusive: 56.2 µM [inhibitor, single point]

Question: Cc1ccc2nc(C)cc(N/N=C/c3cccc(O)c3)c2c1 was tested. Which “activity, negative = inhibition” value did it give?
Answer: inactive: 106%

Question: NS(=O)(=O)c1ccc(CCNC(=O)c2ccc(Cn3c(=O)[nH]c4ccccc4c3=O)cc2)cc1 was tested. Which Potency did it give?
Answer: inconclusive: 25.1 µM [inhibitor, partial curve]

Question: For Cc1cccnc1NC(=O)c1ccc(S(=O)(=O)N2CC(C)OC(C)C2)cc1 (centres undefined), which Potency is on record?
Answer: inconclusive: 70.8 µM [inhibitor, partial curve, poor fit]

Question: With CC(C)(C)Sc1ccc([N+](=O)[O-])cc1C(=O)Nc1ccncc1 as the compound, how does the “activity, negative = inhibition” value read?
Answer: inactive: 50.8%

Question: CC(=O)C1(O)Cc2c(O)c3c(c(O)c2C(OC2CC(N)C(O)C(C)O2)C1)C(=O)c1c(O)cccc1C3=O (centres undefined) was tested. Which Potency did it give?
Answer: inconclusive: 50.1 µM [inhibitor, partial curve, poor fit]

Question: How did the Potency turn out when Cn1c2ccccc2c(=O)c2ccc(C#CC3(N)CCCCC3)cc21 was run?
Answer: inconclusive: 17.8 µM [inhibitor, full curve, poor fit]

Question: How did the Potency turn out when COCCCNC(=O)c1c(N)n(-c2ccc(S(N)(=O)=O)cc2)c2nc3ccccc3nc12 was run?
Answer: inconclusive: 39.8 µM [inhibitor, single point]

Question: With CCCCc1cn([C@@H](CCCCNC(=O)OC(C)(C)C)C(=O)N2CCN(C(=O)OC(C)(C)C)CC2)nn1 as the compound, how does the Potency read?
Answer: inconclusive: 39.8 µM [inhibitor, single point]

Question: CC(=O)c1ccc(-c2ccc(C(=O)N(C)Cc3nc4ccccc4c(=O)[nH]3)o2)cc1 was tested. Which “activity, negative = inhibition” value did it give?
Answer: inactive: 18%

Question: Which Potency does the source give for COc1ccc(NC(=O)C(C)N2C(=O)c3ccccc3S2(=O)=O)c(OC)c1 (centres undefined) here?
Answer: inconclusive: 89.1 µM [inhibitor, single point]

Question: With CCn1c(CSc2nccn2C)nc2cc(C(=O)O)ccc21 as the compound, how does the Potency read?
Answer: inconclusive: 15.8 µM [inhibitor, partial curve, poor fit]

Question: For CCOC(=O)c1sc(NC(=O)CSc2nc3ccccc3o2)c(C(=O)OCC)c1C, which “activity, negative = inhibition” value is on record?
Answer: inactive: 6.92%

Question: With O=c1c(Cl)c(N/N=C/c2ccc(Cl)cc2)cnn1-c1ccccc1 as the compound, how does the Potency read?
Answer: active: 28.2 µM

Question: Which Potency does the source give for Cc1c(C(=O)N2CCOCC2)[nH]c2c1C(=O)CC(c1ccc(Cl)cc1)C2 (centres undefined) here?
Answer: inconclusive: 79.4 µM [inhibitor, single point]

Question: CCOc1ccc(S(=O)(=O)Nc2cccc(N(C)S(C)(=O)=O)c2)cc1 was tested. Which Potency did it give?
Answer: inconclusive: 89.1 µM [inhibitor, partial curve, poor fit]

Question: With N#CC1=C(N)Oc2[nH]c(=S)[nH]c(=O)c2C12C(=O)Nc1ccccc12 (centres undefined) as the compound, how does the Potency read?
Answer: inconclusive: 15.8 µM [inhibitor, full curve, poor fit]

Question: With CCC(=O)N1CCc2cc(S(=O)(=O)NC(C(=O)NCc3ccc(OC)cc3)C(C)C)ccc21 (centres undefined) as the compound, how does the “activity, negative = inhibition” value read?
Answer: inactive: -2.53%

Question: For CCOC(=O)N1CCN(C(=O)C2CCC(=O)N(CCc3ccccc3)C2)CC1 (centres undefined), which Potency is on record?
Answer: inconclusive: 89.1 µM [inhibitor, single point]

Question: For Cc1ccc2sc(N3CCN(C(=O)C4COc5ccccc5O4)CC3)nc2c1C (centres undefined), which “activity, negative = inhibition” value is on record?
Answer: inactive: 21.5%

Question: With CC1=NOC(=O)/C1=C/c1ccc(N(C)C)cc1 as the compound, how does the Potency read?
Answer: inconclusive: 22.4 µM [inhibitor, single point]

Question: CCOc1ccc(Br)cc1CNCc1cccnc1 was tested. Which Potency did it give?
Answer: inconclusive: 0.891 µM [inhibitor, full curve, poor fit]

Question: Which Potency does the source give for Cc1cccc(N2C(S)=C(C#N)C(=O)NC23CCCCC3)c1 here?
Answer: inconclusive: 35.5 µM [inhibitor, single point]

Question: With Cc1ccc(C(=O)OCc2nnc(-c3ccccc3)o2)s1 as the compound, how does the “activity, negative = inhibition” value read?
Answer: inactive: 51.3%

Question: With COc1cc(/C=C/C(=O)Nc2cccnc2)cc(OC)c1OC as the compound, how does the Potency read?
Answer: inconclusive: 56.2 µM [inhibitor, single point]

Question: For Cc1csc(NC(=O)c2cnc3ccccc3n2)n1, which “activity, negative = inhibition” value is on record?
Answer: inactive: 19%

Question: How did the Potency turn out when O=C(Nc1c(C(=O)N2CCN(c3ccc(F)cc3)CC2)oc2ccccc12)c1ccco1 was run?
Answer: inconclusive: 100 µM [inhibitor, partial curve, poor fit]

Question: With COCCCn1c(-c2ccc(OC)cc2)nc2c1c(=O)[nH]c(=O)n2Cc1ccccc1 as the compound, how does the Potency read?
Answer: inconclusive: 89.1 µM [inhibitor, partial curve]

Question: CCC1CCCCN1C(=O)CSc1nc(C)cc(C)n1 (centres undefined) was tested. Which Potency did it give?
Answer: inconclusive: 35.5 µM [inhibitor, partial curve, poor fit]

Question: With CCCn1c(SCC(=O)N(C)C2CCS(=O)(=O)C2)nc2sc3c(c2c1=O)CCC3 (centres undefined) as the compound, how does the Potency read?
Answer: inconclusive: 31.6 µM [inhibitor, partial curve, poor fit]

Question: COC(=O)c1sccc1NC(=O)Nc1cc(C)cc(C)c1 was tested. Which Potency did it give?
Answer: inconclusive: 89.1 µM [inhibitor, single point]

Question: How did the Potency turn out when COc1ccc(C(=O)C(CN2CCCC2)c2ccccc2)cc1 (centres undefined) was run?
Answer: inconclusive: 2.51 µM [inhibitor, full curve, poor fit]

Question: Cc1cccc2c1-c1sc(C(=O)NCc3ccccc3Cl)cc1CO2 was tested. Which “activity, negative = inhibition” value did it give?
Answer: inactive: 11%

Question: COc1ccc(CCNc2nc(C)c(C(C)=O)s2)cc1OC was tested. Which Potency did it give?
Answer: inconclusive: 31.6 µM [inhibitor, single point]

Question: How did the Potency turn out when COc1ccc(/C=C/c2c(-c3cccc(C)c3)oc3ccc(-c4ccc5c(c4)OCO5)cc23)cc1 was run?
Answer: inconclusive: 35.5 µM [inhibitor, single point]

Question: Which “activity, negative = inhibition” value does the source give for COCCCNC(=O)CN1C(=O)c2c(c3ccccc3n2C)C1c1ccc(OC)cc1 (centres undefined) here?
Answer: inactive: 6.33%

Question: Which Potency does the source give for CN(c1ccccc1)S(=O)(=O)c1cccc(NC(=O)CSc2nncs2)c1 here?
Answer: inconclusive: 2.51 µM [inhibitor, partial curve, poor fit]

Question: For O=C(CCl)N1CCN(C(=O)C2COc3ccccc3O2)CC1 (centres undefined), which Potency is on record?
Answer: inconclusive: 10 µM [inhibitor, partial curve, poor fit]

Question: With COc1ccc(C(=O)/C=C/c2ccc(O)cc2)c(O)c1CC=C(C)C as the compound, how does the Potency read?
Answer: inconclusive: 89.1 µM [inhibitor, single point]

Question: For CCC(=O)NC(c1cc(Cl)c2ccccc2c1O)C1CC1 (centres undefined), which “activity, negative = inhibition” value is on record?
Answer: inactive: 13.5%

Question: Which Potency does the source give for Cc1cccc(NC2=NCC(=O)N2CCc2ccccc2)c1 here?
Answer: inconclusive: 39.8 µM [inhibitor, single point]

Question: COCCOC(=O)c1c(NC(=O)CN2CCc3ccccc32)sc(C(N)=O)c1C was tested. Which Potency did it give?
Answer: inconclusive: 56.2 µM [inhibitor, partial curve, poor fit]

Question: How did the Potency turn out when CCn1c(C)nc2cc(C(=O)N/N=C/c3ccc(O)cc3)ccc21 was run?
Answer: inconclusive: 112 µM [inhibitor, partial curve, poor fit]

Question: How did the Potency turn out when CCOC(=O)c1c(NC(=O)CC2SC(N)=NC2=O)sc2c1CCC(C)C2 (centres undefined) was run?
Answer: inconclusive: 79.4 µM [inhibitor, partial curve]

Question: O=C(NCCCO)C(=O)Nc1c2c(nn1-c1ccc(F)cc1)CSC2 was tested. Which Potency did it give?
Answer: inconclusive: 3.16 µM [inhibitor, full curve]

Question: Which Potency does the source give for CCC1(CC)NC(=O)N(CC(=O)Nc2ccc(-n3cnnn3)cc2)C1=O here?
Answer: inconclusive: 0.708 µM [inhibitor, full curve, poor fit]

Question: c1ccc(-c2noc(CN3CCCC(OCc4ccccn4)C3)n2)cc1 (centres undefined) was tested. Which “activity, negative = inhibition” value did it give?
Answer: inactive: 4.17%

Question: How did the Potency turn out when CC1(C)C2CC=C(/C=N/NC(=O)C(N)=O)C1C2 (centres undefined) was run?
Answer: inconclusive: 79.4 µM [inhibitor, partial curve, poor fit]

Question: With Cc1cc(NC(=O)CSc2nnc(C)c(=O)n2N)no1 as the compound, how does the Potency read?
Answer: inconclusive: 89.1 µM [inhibitor, partial curve, poor fit]

Question: Which Potency does the source give for O=C(NCc1nc2ccccc2[nH]1)C1=C[C@@H](c2ccc(C(F)(F)F)cc2)C[C@@H](OCc2ccc(CO)cc2)O1 here?
Answer: inconclusive: 10 µM [inhibitor, partial curve, poor fit]

Question: With COCCn1c(SCC(=O)Nc2cc(C)cc(C)c2)nnc1C(C)C as the compound, how does the Potency read?
Answer: inconclusive: 89.1 µM [inhibitor, partial curve, poor fit]

Question: With O=C(NC(=S)Nc1ccc2c(c1)OCCO2)c1ccco1 as the compound, how does the “activity, negative = inhibition” value read?
Answer: inactive: 0.606%

Question: For CCN(CC)CCCOc1cc2nc(N3CCCN(C)CC3)nc(NC3CCN(C)CC3)c2cc1OC, which Potency is on record?
Answer: inconclusive: 50.1 µM [inhibitor, partial curve]

Question: COc1ccc(OC)c(N=c2ssnc2Cl)c1 was tested. Which Potency did it give?
Answer: inconclusive: 0.708 µM [inhibitor, full curve, poor fit]

Question: Which Potency does the source give for COc1ccc(N2CC(C(=O)Nc3nnc(SCC(=O)N4CCOCC4)s3)CC2=O)cc1 (centres undefined) here?
Answer: inconclusive: 79.4 µM [inhibitor, single point]

Question: COc1ccccc1NC(=O)C(=O)/C=C(\O)c1ccccc1 was tested. Which Potency did it give?
Answer: inconclusive: 44.7 µM [inhibitor, partial curve, poor fit]

Question: For O=S(=O)(Nc1cccc(C(F)(F)F)c1)c1cnc[nH]1, which Potency is on record?
Answer: inconclusive: 12.6 µM [inhibitor, single point]

Question: How did the “activity, negative = inhibition” value turn out when COc1ccc(-c2nc3ccccc3s2)cc1NC(=O)c1ccccc1OC was run?
Answer: inactive: 17%

Question: COCCNC(=S)NNc1ccc(Cl)c(C(=O)O)c1 was tested. Which Potency did it give?
Answer: inconclusive: 22.4 µM [inhibitor, full curve, poor fit]

Question: COc1ccc(CNC(=O)Cc2c(C)c3ccc(O)cc3oc2=O)cc1 was tested. Which Potency did it give?
Answer: inconclusive: 89.1 µM [inhibitor, partial curve, poor fit]

Question: With Cc1cccc(C)c1NC(=O)c1ccc2nc(CCc3ccccc3)oc2c1 as the compound, how does the Potency read?
Answer: inconclusive: 70.8 µM [inhibitor, partial curve, poor fit]

Question: How did the Potency turn out when Cc1ccccc1NS(=O)(=O)c1cc(C(=O)NCCC2=CCCCC2)ccc1C was run?
Answer: inconclusive: 89.1 µM [inhibitor, partial curve, poor fit]

Question: Which Potency does the source give for CCOc1ccc2c(c1)C(NC(C)=O)C(=O)N2CCN1CCOCC1 (centres undefined) here?
Answer: inconclusive: 1.26 µM [inhibitor, full curve, poor fit]

Question: O=S(=O)(NCc1ccncc1)c1ccc(S(=O)(=O)NCC2CCCO2)cc1 (centres undefined) was tested. Which Potency did it give?
Answer: inconclusive: 89.1 µM [inhibitor, single point]
